Measured data: PubChem BioAssay AID652259 (Drosophila RNAi Screening Center, 2013)
The deposit covers about 22,000 reagents; shown is an unselected part of those that have a named target and a result. Of all reagents, 233 (1.1%) are marked active. 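Light values are raw, unnormalised plate reads; the ratio scores behind the reporter calls were not deposited.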 A number with no mark means an inactive call. A plus sign joins genes that one reagent is predicted to hit. The record does not give: the amount of reagent, the time to read-out, the dose of the treatment.

- Test: 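Identify new Wingless signalling regulators in fly cells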 (primary screen)
- Cells: Drosophila clone 8 imaginal disc epithelial cells
- Knock-down reagent: long dsRNA against Drosophila genes
- Treatment: pathway stimulated by co-transfected Wingless expression plasmid
- Detection: 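Dual luciferase reads per well after Wingless plasmid stimulation: reporter firefly light and Renilla control light; activity is firefly divided by Renilla, a ratio not deposited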
- Reading the numbers: firefly reporter light: higher = more Wg reporter light, before normalisation; Renilla control light: higher = more transfected or surviving cells
- Active means: 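Strong candidates differ from their plate mean by at least two out of four per-plate statistical tests; weak candidates meet just one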
- Calls: active = candidate regulator (raises or lowers reporter); inactive = not a candidate

| target gene | PubChem SID | reporter change call, replicate 1 | firefly reporter light, replicate 1 | firefly reporter light, replicate 2 | Renilla control light, replicate 1 | Renilla control light, replicate 2 |
| --- | --- | --- | --- | --- | --- | --- |
| fne | SID104200124 | – | 12612 | – | 6336 | – |
| fne | SID104201891 | – | 5.24e5 | 5.96e5 | 2.13e5 | 2.79e5 |
| Obp19b | SID104200328 | – | 19138 | – | 9573 | – |
| geminin | SID104184776 | – | 2518 | 3824 | 429 | 1168 |
| CG15443 | SID104180247 | – | 2504 | 8935 | 755 | 2729 |
| fdl | SID104187071 | – | 5916 | – | 2153 | – |
| Ctu1 | SID104186861 | – | 2539 | 4745 | 855 | 2420 |
| Arfrp1 | SID104198209 | – | 3161 | 6580 | 731 | 1652 |
| Gr5a | SID104197877 | – | 20442 | – | 9269 | – |
| dmrt99B | SID104194837 | – | 6274 | – | 614 | – |
| CG32444 | SID104191469 | – | 6497 | – | 2935 | – |
| tst + CG10375 | SID104194029 | – | 2099 | 6573 | 950 | 1305 |
| CG13766 | SID104182063 | – | 2253 | 5520 | 688 | 1653 |
| CG11368 | SID104197570 | – | 16277 | – | 8328 | – |
| Nmd3 | SID104198479 | – | 2904 | 8474 | 1414 | 2941 |
| Nmd3 | SID104202193 | – | 6.73e5 | 7.23e5 | 2.15e5 | 2.90e5 |
| CG42712 (retired record) | SID104180830 | – | 17133 | – | 6388 | – |
| upd1 | SID104200150 | – | 21618 | – | 9243 | – |
| CG13690 | SID104180151 | – | 2784 | 7120 | 761 | 2772 |
| CG11068 | SID104199161 | – | 16528 | – | 7025 | – |
| RpL24-like | SID104195903 | – | 12680 | – | 2924 | – |
| CG1737 | SID104199563 | – | 3194 | – | 641 | – |
| CG4362 | SID104195359 | – | 11421 | – | 3301 | – |
| CG13344 | SID104186170 | – | 15312 | – | 5736 | – |
| Etl1 | SID104182703 | – | 7556 | – | 1958 | – |
| Ubc10 | SID104187360 | – | 9284 | – | 1912 | – |
| CG9263 | SID104182968 | – | 2011 | 9099 | 1275 | 4024 |
| Pax | SID104181495 | – | 20880 | – | 10792 | – |
| Pax | SID104182443 | – | 18793 | – | 6621 | – |
| Pax | SID104182444 | – | 3986 | 7958 | 1237 | 2913 |
| Ncoa6 | SID104182145 | – | 8321 | – | 902 | – |
| anne | SID104196895 | – | 3344 | – | 1501 | – |
| Panx | SID104184355 | – | 1933 | 6646 | 653 | 2580 |
| RpL18A | SID104187330 | – | 6044 | – | 1689 | – |
| CG33964 + CG13175 | SID104186092 | – | 4612 | – | 2381 | – |
| CG33964 + CG13175 | SID104186093 | – | 4496 | – | 1672 | – |
| CG33964 + CG13175 | SID104186976 | – | 6544 | – | 2597 | – |
| Tsp29Fb | SID104183025 | – | 3869 | 9264 | 995 | 3403 |
| Setd3 | SID104197632 | – | 16168 | – | 8984 | – |
| Setd3 | SID104198061 | – | 16746 | – | 7994 | – |
| Dhc1 | SID104192540 | – | 4461 | – | 2224 | – |
| Dhc1 | SID104196295 | – | 12026 | – | 2921 | – |
| asRNA:CR43468 + Lfg | SID104186645 | – | 5893 | – | 2471 | – |
| Clp | SID104180538 | – | 2145 | 3473 | 1339 | 2011 |
| strat | SID104182861 | – | 3484 | 10886 | 1239 | 3561 |
| CG31019 | SID104193786 | – | 2233 | – | 973 | – |
| CG15572 | SID104197852 | – | 24837 | – | 10064 | – |
| yrt | SID104196351 | – | 7513 | – | 2758 | – |
| chinmo | SID104180084 | – | 20544 | – | 7872 | – |
| chinmo | SID104180277 | – | 7739 | 13474 | 1616 | 3351 |
| chinmo | SID104180301 | – | 3911 | 12152 | 775 | 1932 |
| chinmo | SID104201887 | – | 6.42e5 | 6.85e5 | 1.37e5 | 97862 |
| CG3430 | SID104182505 | Wg reporter activity lowered | 6967 | – | 3367 | – |
| AspRS-m | SID104182438 | – | 1424 | 6315 | 804 | 3370 |
| CG5445 | SID104199735 | – | 23572 | – | 7768 | – |
| l(3)psg2 | SID104190276 | – | 4737 | – | 876 | – |
| Dlip1 | SID104198252 | – | 26199 | – | 18506 | – |
| shd | SID104190921 | – | 4084 | – | 2107 | – |
| CG15717 | SID104199476 | – | 26061 | – | 14034 | – |
| Rnf11 | SID104201284 | – | 7.03e5 | 8.08e5 | 3.44e5 | 2.90e5 |
| Ric | SID104187324 | Wg reporter activity raised | 6192 | – | 1911 | – |
| CG31522 | SID104191797 | – | 2896 | – | 1398 | – |
| loj | SID104189583 | – | 9291 | – | 3770 | – |
| Xe7 | SID104192099 | – | 17827 | – | 3137 | – |
| Dhc98D | SID104196437 | – | 9056 | – | 2924 | – |
| CG10479 | SID104189525 | – | 6377 | – | 2643 | – |
| dyl | SID104188258 | – | 5890 | – | 2803 | – |
| dyl | SID104188259 | – | 8096 | – | 3594 | – |
| Taf1 | SID104192399 | Wg reporter activity raised (active) | 25175 | – | 1461 | – |
| Tango8 | SID104186266 | Wg reporter activity raised | 6293 | 1.06e6 | 1130 | 3.17e5 |
| kri | SID104190307 | – | 8667 | – | 3964 | – |
| CG17919 | SID104192363 | – | 8352 | – | 2818 | – |
| CG13616 | SID104194411 | – | 19082 | – | 15130 | – |

A portion of the results above:
| target gene | PubChem SID | reporter change call, replicate 1 | firefly reporter light, replicate 1 | firefly reporter light, replicate 2 | Renilla control light, replicate 1 | Renilla control light, replicate 2 |
| --- | --- | --- | --- | --- | --- | --- |
| CG13344 | SID104186170 | – | 15312 | – | 5736 | – |
| Etl1 | SID104182703 | – | 7556 | – | 1958 | – |
| Ubc10 | SID104187360 | – | 9284 | – | 1912 | – |
| CG9263 | SID104182968 | – | 2011 | 9099 | 1275 | 4024 |
| Pax | SID104181495 | – | 20880 | – | 10792 | – |
| Pax | SID104182443 | – | 18793 | – | 6621 | – |
| Pax | SID104182444 | – | 3986 | 7958 | 1237 | 2913 |
| Ncoa6 | SID104182145 | – | 8321 | – | 902 | – |
